Results are given in words; binding and its absence hold for the method and conditions named. In cells and extracts the contact can be indirect. Binding can be weak; no strength is given.
Target: Futsch, endogenous (Drosophila) (Drosophila (endogenous in brain)) (UniProt Q9W596)
Assay: co-IP; endogenous proteins, wild type Drosophila head/brain lysate, immunoprecipitated with anti-Futsch or anti-dPiT antibody, Dynabeads Protein G

The chains behind the UniProt entries cited, without tags or fusion partners. Where a name states a change or a piece, a line headed by the entry shows the natural chain unless it says otherwise.
UniProt Q9W596: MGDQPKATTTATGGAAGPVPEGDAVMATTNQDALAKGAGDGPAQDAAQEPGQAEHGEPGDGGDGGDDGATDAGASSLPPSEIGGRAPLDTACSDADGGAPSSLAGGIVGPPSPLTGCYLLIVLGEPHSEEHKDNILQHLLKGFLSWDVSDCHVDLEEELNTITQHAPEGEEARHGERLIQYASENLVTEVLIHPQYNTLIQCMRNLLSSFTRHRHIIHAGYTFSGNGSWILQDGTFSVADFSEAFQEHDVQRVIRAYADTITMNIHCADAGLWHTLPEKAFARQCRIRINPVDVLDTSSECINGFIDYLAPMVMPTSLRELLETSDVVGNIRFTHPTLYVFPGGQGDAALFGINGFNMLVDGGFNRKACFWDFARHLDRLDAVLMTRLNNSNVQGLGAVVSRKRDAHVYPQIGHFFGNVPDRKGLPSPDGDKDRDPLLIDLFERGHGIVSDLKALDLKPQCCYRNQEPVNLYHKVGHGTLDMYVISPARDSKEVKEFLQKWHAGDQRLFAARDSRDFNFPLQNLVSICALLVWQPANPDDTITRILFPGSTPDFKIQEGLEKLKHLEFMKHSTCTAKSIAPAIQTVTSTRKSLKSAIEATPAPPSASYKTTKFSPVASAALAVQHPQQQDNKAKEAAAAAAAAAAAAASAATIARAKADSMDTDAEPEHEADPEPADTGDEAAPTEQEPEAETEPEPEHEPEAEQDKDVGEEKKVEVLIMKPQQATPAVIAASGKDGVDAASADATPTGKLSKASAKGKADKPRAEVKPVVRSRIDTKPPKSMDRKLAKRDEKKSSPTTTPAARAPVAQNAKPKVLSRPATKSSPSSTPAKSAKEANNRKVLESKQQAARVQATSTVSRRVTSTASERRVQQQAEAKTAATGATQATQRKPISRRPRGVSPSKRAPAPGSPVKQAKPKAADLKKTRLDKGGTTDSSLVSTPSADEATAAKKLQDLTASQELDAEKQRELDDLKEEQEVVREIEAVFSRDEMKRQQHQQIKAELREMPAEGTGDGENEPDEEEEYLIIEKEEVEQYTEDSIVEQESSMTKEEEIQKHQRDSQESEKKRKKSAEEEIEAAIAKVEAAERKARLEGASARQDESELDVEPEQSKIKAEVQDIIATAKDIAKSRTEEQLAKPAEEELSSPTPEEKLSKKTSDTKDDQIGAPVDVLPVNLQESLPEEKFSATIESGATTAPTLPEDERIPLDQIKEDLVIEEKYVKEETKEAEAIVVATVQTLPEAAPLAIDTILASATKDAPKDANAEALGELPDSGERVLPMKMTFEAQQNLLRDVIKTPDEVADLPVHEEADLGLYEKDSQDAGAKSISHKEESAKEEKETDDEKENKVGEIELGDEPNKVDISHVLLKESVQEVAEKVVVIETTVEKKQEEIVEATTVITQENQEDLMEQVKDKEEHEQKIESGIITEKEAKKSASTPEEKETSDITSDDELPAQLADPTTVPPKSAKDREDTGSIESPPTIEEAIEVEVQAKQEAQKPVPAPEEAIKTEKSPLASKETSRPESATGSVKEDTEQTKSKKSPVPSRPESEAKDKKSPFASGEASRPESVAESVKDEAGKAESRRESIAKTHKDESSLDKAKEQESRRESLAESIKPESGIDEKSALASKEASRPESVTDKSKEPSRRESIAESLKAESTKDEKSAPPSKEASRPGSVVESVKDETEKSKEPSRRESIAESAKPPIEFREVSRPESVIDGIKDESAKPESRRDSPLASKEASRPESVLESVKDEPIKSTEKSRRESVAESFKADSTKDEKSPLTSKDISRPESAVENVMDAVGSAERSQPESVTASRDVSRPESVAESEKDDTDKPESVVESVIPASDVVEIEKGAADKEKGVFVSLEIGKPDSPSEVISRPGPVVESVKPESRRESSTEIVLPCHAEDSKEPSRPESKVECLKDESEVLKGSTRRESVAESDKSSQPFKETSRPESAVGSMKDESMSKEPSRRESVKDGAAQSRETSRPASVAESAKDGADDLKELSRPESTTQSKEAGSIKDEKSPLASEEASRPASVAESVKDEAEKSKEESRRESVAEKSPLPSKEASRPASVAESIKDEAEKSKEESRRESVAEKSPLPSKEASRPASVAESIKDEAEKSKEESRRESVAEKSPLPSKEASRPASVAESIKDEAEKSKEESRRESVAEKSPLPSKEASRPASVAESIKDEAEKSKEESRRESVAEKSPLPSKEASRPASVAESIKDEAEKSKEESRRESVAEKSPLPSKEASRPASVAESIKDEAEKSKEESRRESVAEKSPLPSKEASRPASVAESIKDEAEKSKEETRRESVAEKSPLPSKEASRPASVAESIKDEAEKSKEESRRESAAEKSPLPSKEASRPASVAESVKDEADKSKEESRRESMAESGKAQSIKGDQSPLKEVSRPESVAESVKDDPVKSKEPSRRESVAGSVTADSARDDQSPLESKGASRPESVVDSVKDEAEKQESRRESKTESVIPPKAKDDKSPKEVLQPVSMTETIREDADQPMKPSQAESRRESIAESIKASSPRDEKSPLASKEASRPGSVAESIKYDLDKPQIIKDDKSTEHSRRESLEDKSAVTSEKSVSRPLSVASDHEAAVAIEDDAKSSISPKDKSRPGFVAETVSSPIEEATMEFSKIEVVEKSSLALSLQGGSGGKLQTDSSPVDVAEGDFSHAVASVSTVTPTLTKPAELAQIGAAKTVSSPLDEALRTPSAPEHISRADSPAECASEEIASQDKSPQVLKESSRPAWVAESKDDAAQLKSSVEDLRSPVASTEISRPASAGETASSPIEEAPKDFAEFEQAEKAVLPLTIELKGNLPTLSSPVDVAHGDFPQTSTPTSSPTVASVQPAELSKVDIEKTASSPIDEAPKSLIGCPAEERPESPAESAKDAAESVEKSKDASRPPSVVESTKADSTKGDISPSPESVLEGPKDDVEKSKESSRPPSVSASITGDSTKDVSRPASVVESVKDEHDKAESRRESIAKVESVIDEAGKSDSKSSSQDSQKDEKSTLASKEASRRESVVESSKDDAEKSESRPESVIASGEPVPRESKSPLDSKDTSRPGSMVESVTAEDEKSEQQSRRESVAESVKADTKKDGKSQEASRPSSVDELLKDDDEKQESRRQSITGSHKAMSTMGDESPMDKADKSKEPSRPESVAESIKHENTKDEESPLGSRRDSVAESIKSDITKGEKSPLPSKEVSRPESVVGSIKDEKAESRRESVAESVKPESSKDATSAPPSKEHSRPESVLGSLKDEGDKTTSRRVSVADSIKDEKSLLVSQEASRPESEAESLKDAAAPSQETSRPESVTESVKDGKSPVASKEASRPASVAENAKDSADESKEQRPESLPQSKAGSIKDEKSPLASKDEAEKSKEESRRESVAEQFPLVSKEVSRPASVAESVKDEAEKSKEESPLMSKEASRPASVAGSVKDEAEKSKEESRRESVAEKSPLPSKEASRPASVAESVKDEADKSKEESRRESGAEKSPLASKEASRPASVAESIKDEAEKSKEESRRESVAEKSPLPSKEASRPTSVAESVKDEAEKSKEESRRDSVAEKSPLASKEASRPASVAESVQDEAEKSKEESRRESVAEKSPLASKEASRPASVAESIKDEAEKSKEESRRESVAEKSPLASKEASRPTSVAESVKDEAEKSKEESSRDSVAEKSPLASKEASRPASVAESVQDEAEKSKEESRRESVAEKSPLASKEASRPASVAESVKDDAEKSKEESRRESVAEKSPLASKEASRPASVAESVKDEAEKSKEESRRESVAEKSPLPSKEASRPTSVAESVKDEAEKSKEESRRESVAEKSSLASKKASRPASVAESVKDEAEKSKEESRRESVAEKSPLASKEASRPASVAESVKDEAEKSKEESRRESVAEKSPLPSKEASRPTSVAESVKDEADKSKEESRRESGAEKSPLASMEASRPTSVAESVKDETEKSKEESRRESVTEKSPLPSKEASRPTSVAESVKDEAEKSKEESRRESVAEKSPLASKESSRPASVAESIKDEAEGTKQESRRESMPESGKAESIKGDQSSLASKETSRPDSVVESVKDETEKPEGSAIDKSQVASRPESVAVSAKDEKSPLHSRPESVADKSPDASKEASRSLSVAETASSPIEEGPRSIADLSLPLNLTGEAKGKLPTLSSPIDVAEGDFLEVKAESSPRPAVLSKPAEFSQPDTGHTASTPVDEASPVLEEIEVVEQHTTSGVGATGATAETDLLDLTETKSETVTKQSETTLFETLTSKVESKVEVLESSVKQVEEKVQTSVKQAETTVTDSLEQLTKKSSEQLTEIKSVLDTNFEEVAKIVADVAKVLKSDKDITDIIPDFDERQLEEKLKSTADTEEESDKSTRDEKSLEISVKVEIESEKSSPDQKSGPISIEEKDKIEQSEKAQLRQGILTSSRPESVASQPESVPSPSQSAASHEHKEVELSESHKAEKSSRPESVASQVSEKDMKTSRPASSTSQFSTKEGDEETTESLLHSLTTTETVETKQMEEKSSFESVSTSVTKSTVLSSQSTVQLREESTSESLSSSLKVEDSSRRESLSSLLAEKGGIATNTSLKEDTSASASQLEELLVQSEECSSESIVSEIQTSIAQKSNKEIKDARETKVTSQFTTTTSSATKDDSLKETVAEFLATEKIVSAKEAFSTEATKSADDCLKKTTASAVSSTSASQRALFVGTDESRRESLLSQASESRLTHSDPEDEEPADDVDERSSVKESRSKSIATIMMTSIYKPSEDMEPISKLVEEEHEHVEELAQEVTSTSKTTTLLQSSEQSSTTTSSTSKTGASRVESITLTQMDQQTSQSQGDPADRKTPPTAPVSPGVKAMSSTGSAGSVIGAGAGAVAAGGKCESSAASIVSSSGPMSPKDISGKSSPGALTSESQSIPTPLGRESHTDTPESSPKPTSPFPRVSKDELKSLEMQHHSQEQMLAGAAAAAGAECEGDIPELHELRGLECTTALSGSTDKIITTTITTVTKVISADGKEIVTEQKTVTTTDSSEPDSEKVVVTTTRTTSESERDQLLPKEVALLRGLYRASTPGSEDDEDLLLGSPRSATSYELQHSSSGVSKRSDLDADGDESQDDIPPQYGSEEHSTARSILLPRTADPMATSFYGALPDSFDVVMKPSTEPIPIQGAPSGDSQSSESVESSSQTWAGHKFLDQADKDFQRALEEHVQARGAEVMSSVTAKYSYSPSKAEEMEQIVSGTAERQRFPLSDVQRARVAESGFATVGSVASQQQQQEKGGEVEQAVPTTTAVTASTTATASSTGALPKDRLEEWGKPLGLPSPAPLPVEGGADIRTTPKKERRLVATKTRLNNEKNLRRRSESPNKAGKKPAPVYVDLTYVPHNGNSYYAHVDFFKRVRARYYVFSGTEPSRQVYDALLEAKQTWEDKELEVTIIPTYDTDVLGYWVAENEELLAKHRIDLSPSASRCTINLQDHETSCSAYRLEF
UniProt Q9VTG0: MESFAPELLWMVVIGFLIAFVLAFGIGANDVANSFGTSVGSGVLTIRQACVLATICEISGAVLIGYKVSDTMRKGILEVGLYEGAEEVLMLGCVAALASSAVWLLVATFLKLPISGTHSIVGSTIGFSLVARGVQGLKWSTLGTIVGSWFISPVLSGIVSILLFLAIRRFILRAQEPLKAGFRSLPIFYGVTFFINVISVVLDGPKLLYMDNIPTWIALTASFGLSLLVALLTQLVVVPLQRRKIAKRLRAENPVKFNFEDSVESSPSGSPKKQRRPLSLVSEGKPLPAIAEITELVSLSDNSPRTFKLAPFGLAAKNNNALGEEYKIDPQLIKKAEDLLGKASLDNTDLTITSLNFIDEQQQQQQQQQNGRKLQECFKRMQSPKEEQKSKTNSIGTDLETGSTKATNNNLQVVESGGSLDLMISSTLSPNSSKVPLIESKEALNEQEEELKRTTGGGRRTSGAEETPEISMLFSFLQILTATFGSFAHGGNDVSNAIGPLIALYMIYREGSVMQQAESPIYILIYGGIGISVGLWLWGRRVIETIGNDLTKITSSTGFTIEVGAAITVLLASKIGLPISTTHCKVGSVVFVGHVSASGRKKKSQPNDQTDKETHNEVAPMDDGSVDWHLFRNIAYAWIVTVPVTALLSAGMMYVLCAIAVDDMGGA

dPiT, endogenous (Drosophila) (from UniProt Q9VTG0)
binding: binds
